Taken from: PubChem BioAssay AID1224830 (NIAID, 2016)
Test: 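Host factors that control LPS-induced TNF expression in human macrophages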 (primary screen). Cell system: human THP-1 monocytic leukaemia cells, TNF dual-luciferase reporter clone, PMA-differentiated to macrophage-like cells. Reagents: siRNA pool against human genes, 50 nM. Duration: LPS for 4 h, given about 3 days after siRNA transfection. Challenge: bacterial LPS (TLR4 ligand), 10 ng/ml. Measurement: 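TNF firefly reporter luminescence divided by renilla, normalised to the plate median, then turned into a robust z-score for each replicate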. Direction: TNF reporter robust z-score: higher = stronger TNF reporter response to LPS. Call rule: 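Each well counts as active if its z-score is over 2.8 or under -1.5; controls are left without a call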.
Shown is one part, drawn at random, of about 18,000 reagents. Of all reagents, about 2,900 (16%) are marked active. 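Calls are made per well; low scores hint the gene aids the LPS response, high scores that it dampens it.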 Repeated entries: four replicate wells of each siRNA pool.

target gene,PubChem SID,TNF reporter robust z-score,call
CRAMP1 (cramped chromatin regulator 1),SID315458486,-0.76,inactive
CRAMP1 (cramped chromatin regulator 1),SID315458486,-0.78,inactive
CRAMP1 (cramped chromatin regulator 1),SID315458486,-1.19,inactive
CRAMP1 (cramped chromatin regulator 1),SID315458486,-0.66,inactive
GMPR (guanosine monophosphate reductase),SID315448935,0.68,inactive
GMPR (guanosine monophosphate reductase),SID315448935,0.21,inactive
GMPR (guanosine monophosphate reductase),SID315448935,-0.56,inactive
GMPR (guanosine monophosphate reductase),SID315448935,0.53,inactive
ART3 (ADP-ribosyltransferase 3 (inactive)),SID315447420,-1.52,active
ART3 (ADP-ribosyltransferase 3 (inactive)),SID315447420,-1.43,inactive
ART3 (ADP-ribosyltransferase 3 (inactive)),SID315447420,-1.26,inactive
ART3 (ADP-ribosyltransferase 3 (inactive)),SID315447420,-1.47,inactive
AGA (aspartylglucosaminidase),SID315447238,-0.79,inactive
AGA (aspartylglucosaminidase),SID315447238,0,inactive
AGA (aspartylglucosaminidase),SID315447238,1.08,inactive
AGA (aspartylglucosaminidase),SID315447238,0.96,inactive
C1GALT1,SID315458155,-0.25,inactive
C1GALT1,SID315458155,-0.08,inactive
C1GALT1,SID315458155,-0.16,inactive
C1GALT1,SID315458155,-1,inactive
SLC35D4,SID315460639,3.83,active
SLC35D4,SID315460639,2.09,inactive
SLC35D4,SID315460639,4.49,active
SLC35D4,SID315460639,2.48,inactive
PLEKHS1 (pleckstrin homology domain containing S1),SID315459583,0.24,inactive
PLEKHS1 (pleckstrin homology domain containing S1),SID315459583,-0.08,inactive
PLEKHS1 (pleckstrin homology domain containing S1),SID315459583,-0.92,inactive
PLEKHS1 (pleckstrin homology domain containing S1),SID315459583,-0.78,inactive
ECSIT (ECSIT signaling integrator),SID315456620,0.07,inactive
ECSIT (ECSIT signaling integrator),SID315456620,1.08,inactive
ECSIT (ECSIT signaling integrator),SID315456620,2.49,inactive
ECSIT (ECSIT signaling integrator),SID315456620,0.58,inactive
NT5DC2 (5'-nucleotidase domain containing 2),SID315459050,-0.93,inactive
NT5DC2 (5'-nucleotidase domain containing 2),SID315459050,-0.8,inactive
NT5DC2 (5'-nucleotidase domain containing 2),SID315459050,0.25,inactive
NT5DC2 (5'-nucleotidase domain containing 2),SID315459050,-0.1,inactive
DEFA1 (defensin alpha 1),SID315448285,1.03,inactive
DEFA1 (defensin alpha 1),SID315448285,0.08,inactive
DEFA1 (defensin alpha 1),SID315448285,0.85,inactive
DEFA1 (defensin alpha 1),SID315448285,0.57,inactive
AFF4 (ALF transcription elongation factor 4),SID315455934,0.34,inactive
AFF4 (ALF transcription elongation factor 4),SID315455934,0.79,inactive
AFF4 (ALF transcription elongation factor 4),SID315455934,0.18,inactive
AFF4 (ALF transcription elongation factor 4),SID315455934,0.61,inactive
PPP4C (protein phosphatase 4 catalytic subunit),SID315450764,-1.16,inactive
PPP4C (protein phosphatase 4 catalytic subunit),SID315450764,-1,inactive
PPP4C (protein phosphatase 4 catalytic subunit),SID315450764,-1.4,inactive
PPP4C (protein phosphatase 4 catalytic subunit),SID315450764,-0.26,inactive
DST (dystonin),SID315447577,1.9,inactive
DST (dystonin),SID315447577,0.44,inactive
DST (dystonin),SID315447577,1.7,inactive
DST (dystonin),SID315447577,-0.89,inactive
FCSK (fucose kinase),SID315462986,-0.79,inactive
FCSK (fucose kinase),SID315462986,-1.02,inactive
FCSK (fucose kinase),SID315462986,-1.17,inactive
FCSK (fucose kinase),SID315462986,0.11,inactive
SNX20 (sorting nexin 20),SID315461613,-0.61,inactive
SNX20 (sorting nexin 20),SID315461613,-0.56,inactive
SNX20 (sorting nexin 20),SID315461613,-1.1,inactive
SNX20 (sorting nexin 20),SID315461613,-0.7,inactive
TRIP10 (thyroid hormone receptor interactor 10),SID315453197,-0.15,inactive
TRIP10 (thyroid hormone receptor interactor 10),SID315453197,0.89,inactive
TRIP10 (thyroid hormone receptor interactor 10),SID315453197,0.6,inactive
TRIP10 (thyroid hormone receptor interactor 10),SID315453197,1.67,inactive
NDUFA8 (NADH:ubiquinone oxidoreductase subunit A8),SID315450171,-0.49,inactive
NDUFA8 (NADH:ubiquinone oxidoreductase subunit A8),SID315450171,-0.21,inactive
NDUFA8 (NADH:ubiquinone oxidoreductase subunit A8),SID315450171,-0.16,inactive
NDUFA8 (NADH:ubiquinone oxidoreductase subunit A8),SID315450171,-0.27,inactive
SIDT1 (SID1 transmembrane family member 1),SID315457204,0.08,inactive
SIDT1 (SID1 transmembrane family member 1),SID315457204,0.32,inactive
SIDT1 (SID1 transmembrane family member 1),SID315457204,0.86,inactive
SIDT1 (SID1 transmembrane family member 1),SID315457204,-0.29,inactive
BCAS3 (BCAS3 microtubule associated cell migration factor),SID315457190,-1.24,inactive
BCAS3 (BCAS3 microtubule associated cell migration factor),SID315457190,-0.72,inactive
BCAS3 (BCAS3 microtubule associated cell migration factor),SID315457190,-1.25,inactive
BCAS3 (BCAS3 microtubule associated cell migration factor),SID315457190,-0.83,inactive
INSRR (insulin receptor related receptor),SID315449523,-0.41,inactive
INSRR (insulin receptor related receptor),SID315449523,-0.58,inactive
INSRR (insulin receptor related receptor),SID315449523,-0.3,inactive
INSRR (insulin receptor related receptor),SID315449523,-0.16,inactive
CDSN (corneodesmosin),SID315447863,-0.33,inactive
CDSN (corneodesmosin),SID315447863,0.21,inactive
CDSN (corneodesmosin),SID315447863,1.6,inactive
CDSN (corneodesmosin),SID315447863,-0.36,inactive
ADAMTSL2 (ADAMTS like 2),SID315453507,0.14,inactive
ADAMTSL2 (ADAMTS like 2),SID315453507,0.57,inactive
ADAMTSL2 (ADAMTS like 2),SID315453507,0.51,inactive
ADAMTSL2 (ADAMTS like 2),SID315453507,-0.11,inactive
ESRRA (estrogen related receptor alpha),SID315448567,-1.44,inactive
ESRRA (estrogen related receptor alpha),SID315448567,-1.29,inactive
ESRRA (estrogen related receptor alpha),SID315448567,-1.15,inactive
ESRRA (estrogen related receptor alpha),SID315448567,-0.11,inactive
AASS (aminoadipate-semialdehyde synthase),SID315453865,-0.7,inactive
AASS (aminoadipate-semialdehyde synthase),SID315453865,-0.53,inactive
AASS (aminoadipate-semialdehyde synthase),SID315453865,-1.13,inactive
AASS (aminoadipate-semialdehyde synthase),SID315453865,0.02,inactive
ZNF761 (zinc finger protein 761),SID315464496,0.48,inactive
ZNF761 (zinc finger protein 761),SID315464496,0.29,inactive
ZNF761 (zinc finger protein 761),SID315464496,0.59,inactive
ZNF761 (zinc finger protein 761),SID315464496,-0.01,inactive
RHPN1 (rhophilin Rho GTPase binding protein 1),SID315461255,0.39,inactive
RHPN1 (rhophilin Rho GTPase binding protein 1),SID315461255,0.83,inactive
RHPN1 (rhophilin Rho GTPase binding protein 1),SID315461255,0.47,inactive
RHPN1 (rhophilin Rho GTPase binding protein 1),SID315461255,1.14,inactive
NIN (ninein),SID315456548,0.69,inactive
NIN (ninein),SID315456548,-0.15,inactive
NIN (ninein),SID315456548,1.85,inactive
NIN (ninein),SID315456548,0.99,inactive
FOXRED1 (FAD dependent oxidoreductase domain containing 1),SID315457686,-0.61,inactive
FOXRED1 (FAD dependent oxidoreductase domain containing 1),SID315457686,1.53,inactive
FOXRED1 (FAD dependent oxidoreductase domain containing 1),SID315457686,-0.43,inactive
FOXRED1 (FAD dependent oxidoreductase domain containing 1),SID315457686,1.02,inactive
DRAP1 (DR1 associated protein 1),SID315454216,0.58,inactive
DRAP1 (DR1 associated protein 1),SID315454216,0.08,inactive
DRAP1 (DR1 associated protein 1),SID315454216,0.38,inactive
DRAP1 (DR1 associated protein 1),SID315454216,-0.51,inactive
HOXB6 (homeobox B6),SID315449281,0.9,inactive
HOXB6 (homeobox B6),SID315449281,1.2,inactive
HOXB6 (homeobox B6),SID315449281,1.18,inactive
HOXB6 (homeobox B6),SID315449281,1.84,inactive
TMEM64 (transmembrane protein 64),SID315462879,0.84,inactive
TMEM64 (transmembrane protein 64),SID315462879,1.65,inactive
TMEM64 (transmembrane protein 64),SID315462879,2.19,inactive
TMEM64 (transmembrane protein 64),SID315462879,2.97,active
GGA1,SID315455660,1.02,inactive
GGA1,SID315455660,0.9,inactive
GGA1,SID315455660,-0.18,inactive
GGA1,SID315455660,-0.07,inactive
LYPD6 (LY6/PLAUR domain containing 6),SID315461867,1.07,inactive
LYPD6 (LY6/PLAUR domain containing 6),SID315461867,0.73,inactive
LYPD6 (LY6/PLAUR domain containing 6),SID315461867,0.72,inactive
LYPD6 (LY6/PLAUR domain containing 6),SID315461867,0.58,inactive
SLC35F2,SID315457133,-1.58,active
SLC35F2,SID315457133,-0.29,inactive
SLC35F2,SID315457133,-0.9,inactive
SLC35F2,SID315457133,-1.1,inactive
SOD1 (superoxide dismutase 1),SID315451572,-0.44,inactive
SOD1 (superoxide dismutase 1),SID315451572,-0.78,inactive
SOD1 (superoxide dismutase 1),SID315451572,0.18,inactive
SOD1 (superoxide dismutase 1),SID315451572,-0.37,inactive
